Sequences of proteins named here, by UniProt entry; tags and fusion partners are left off.
UniProt Q0JBA9, entry or part of it: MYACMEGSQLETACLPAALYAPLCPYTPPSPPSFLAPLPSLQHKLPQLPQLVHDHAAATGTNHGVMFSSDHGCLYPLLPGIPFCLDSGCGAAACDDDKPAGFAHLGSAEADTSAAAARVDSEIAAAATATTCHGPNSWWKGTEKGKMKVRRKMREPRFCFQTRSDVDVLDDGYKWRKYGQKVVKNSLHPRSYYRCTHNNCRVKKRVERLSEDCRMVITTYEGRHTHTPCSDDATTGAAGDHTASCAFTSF

This is one part of the list.
These sequences were tested against OsWRKY34 (Oryza sativa, UniProt Q0JBA9 1-250) (assay: protein-binding microarray (RPBM); PBS, 2% BSA, 51.3 ng/ul salmon testes DNA, 50 uM zinc acetate, 200 nM TF, 25 C, 1 h; high values mean tight binding). Settings: protein: recombinant; tags: N-terminal polyhistidine and DsRed monomer fusion (pET32a); label: CyDye5-dUTP incorporated in the synthesized complementary strand; 3' TTTTT single-stranded linker to array surface; dsDNA, one strand shown.
Outline: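 Binding signal is defined as the fluorescence intensity of each feature in arbitrary units, read on an Axon 4000B scanner. Transcription factors with N-terminal polyhistidine and DsRed fusions came from E. coli BL21-CodonPlus and were purified on Ni–NTA. They were incubated at 200 nM for 1 h at 25 °C on a custom Agilent array that had been made double-stranded with Cy5-dUTP, with 50 µM zinc acetate present, and the array was washed.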
In the case of “GCTCTGGTTTCCTCCGTCGCATCGCAAATTCGCAATATCGCGGAGTCACCTAGTGCAG”, the binding signal is reported as 9040 fluorescence intensity (a.u.).
For “TTCTATGCGTAACTTTTTTTAAAACTTTCACTGCAGTTACCGGAGTCACCTAGTGCAG”, the binding signal was 11200 fluorescence intensity (a.u.).
“TGTTTATAGTTGGCTTATAGCCGCTATTGTACCTGTTCTTCGGAGTCACCTAGTGCAG” was tested, and the binding signal was 8310 fluorescence intensity (a.u.).
For “CCATATACTCTCTCCATCCTTAAATGTTTAACGTTGTTGACGGAGTCACCTAGTGCAG”, the binding signal was 8670 fluorescence intensity (a.u.).
For “GAGTCACGCGTAGCAACCGGTCGTATTTGCTATCTCACATCGGAGTCACCTAGTGCAG”, the binding signal was 11700 fluorescence intensity (a.u.).
With “ATAGCTTATCATCAGTATACTTTGCCACTTTGAGTAGTTTCGGAGTCACCTAGTGCAG” the binding signal was 8500 fluorescence intensity (a.u.).
With “CTGCAATTCCTTTCCTAGTAATTAATCATCAAACATATATCGGAGTCACCTAGTGCAG” the binding signal was 8270 fluorescence intensity (a.u.).
“ATCCATCCACCCATCTCATCTTTTGTCTCTTTCTGCTGCTCGGAGTCACCTAGTGCAG” was tested, and the binding signal was 12200 fluorescence intensity (a.u.).
In the case of “GCCCTGAGTGAACTTTTGCCATCGTTCCTCGGATATCTTACGGAGTCACCTAGTGCAG”, the binding signal is reported as 9740 fluorescence intensity (a.u.).
For “CGGTGGGGAGGCCGGGAGGGAGGAGGAGAGAAGAGGAGTGCGGAGTCACCTAGTGCAG”, the binding signal was 9450 fluorescence intensity (a.u.).
“GTGCTAATAGTTTTCTTTCCTAACTAATTTCATCCTTATTCGGAGTCACCTAGTGCAG” was tested, and the binding signal was 8580 fluorescence intensity (a.u.).
For “GAATTCTAGGGTTTTGCAATTTGTTGGGCTTATTGGGCCTCGGAGTCACCTAGTGCAG”, the binding signal was 12500 fluorescence intensity (a.u.).
“GTTTGGTTGGCTGTTCTGCTTGAAATCTTTCAGAATTTTTCGGAGTCACCTAGTGCAG” was tested, and the binding signal was 8110 fluorescence intensity (a.u.).
“TTTTATATTCACAGGTGGCCGGCTCTCTTCTGCACACAACCGGAGTCACCTAGTGCAG” was tested, and the binding signal was 9380 fluorescence intensity (a.u.).
With “TTGATTTTTTGTTGCAAAAGAATATTTTAATTCACTGCAACGGAGTCACCTAGTGCAG” the binding signal was 24300 fluorescence intensity (a.u.).
“GTGACCAACCATTCTTTCATCGCACCTCTACGAAATTCATCGGAGTCACCTAGTGCAG” was tested, and the binding signal was 11900 fluorescence intensity (a.u.).
In the case of “TCTTGCTTTTACCTTTTTTTTTTTTTTTGGCTTCATTCCTCGGAGTCACCTAGTGCAG”, the binding signal is reported as 8570 fluorescence intensity (a.u.).
With “CCCACACGCGCTCCATGCATCTCCACCACGCTCCATGTGTCGGAGTCACCTAGTGCAG” the binding signal was 11000 fluorescence intensity (a.u.).
In the case of “AGTCCCTTTTACACTTGATCTGTTGAACTTTCATTGTGCTCGGAGTCACCTAGTGCAG”, the binding signal is reported as 9690 fluorescence intensity (a.u.).
With “AATTCTCCATTTTATGTACTTTTTCACAGGGATTTTTTTTCGGAGTCACCTAGTGCAG” the binding signal was 11500 fluorescence intensity (a.u.).
In the case of “TTACCACACTCAACCTTTACTCCGGATCGGATTGCCTCTCCGGAGTCACCTAGTGCAG”, the binding signal is reported as 9160 fluorescence intensity (a.u.).
“ACGGATCATGTATACTACTACCATGATGATGAGTCATTTTCGGAGTCACCTAGTGCAG” was tested, and the binding signal was 8180 fluorescence intensity (a.u.).
“TCATTCCTATCTTTTAAGTCGTGTTTCTCTATCGTCAATTCGGAGTCACCTAGTGCAG” was tested, and the binding signal was 9960 fluorescence intensity (a.u.).
In the case of “CTATCATGTTATTGTGTTCTTGCTGCTATTATTTTGACCTCGGAGTCACCTAGTGCAG”, the binding signal is reported as 9220 fluorescence intensity (a.u.).
In the case of “AAGTATCCATCCTTTTTATAGTCTTTGTATTCTGTAATTTCGGAGTCACCTAGTGCAG”, the binding signal is reported as 10600 fluorescence intensity (a.u.).
For “CAGCTCCATCTGCCACCATCCTCTGCATTCCACCGCCGCCCGGAGTCACCTAGTGCAG”, the binding signal was 8990 fluorescence intensity (a.u.).
“ACCAAACAATTTCTTCCTTTCATTACTGTTTGCGGTTTCACGGAGTCACCTAGTGCAG” was tested, and the binding signal was 10900 fluorescence intensity (a.u.).
For “GGTGGTTTTGGATGATAGTTTTGCATATTTTGGAAGCTTACGGAGTCACCTAGTGCAG”, the binding signal was 9620 fluorescence intensity (a.u.).
In the case of “GCCGCCGCCGCCTCCGCCTCCTCTTTGTTTCTCCTCTTAGCGGAGTCACCTAGTGCAG”, the binding signal is reported as 9080 fluorescence intensity (a.u.).
For “AATGAGTTGTGGATGATTTTGTTGTTGGTTTTGTTCATTTCGGAGTCACCTAGTGCAG”, the binding signal was 8140 fluorescence intensity (a.u.).
“TAGGAAGGAGGTGGTACGTCTCTTGTTTTTGCTTGTTTTTCGGAGTCACCTAGTGCAG” was tested, and the binding signal was 8910 fluorescence intensity (a.u.).
For “AACCGTCGACACGCGCGCGACCATTCGATCACTCCACGACCGGAGTCACCTAGTGCAG”, the binding signal was 9410 fluorescence intensity (a.u.).
With “ACTTCCAACTTTTTTATCACATCGTTTCAATTTCAACCAACGGAGTCACCTAGTGCAG” the binding signal was 9030 fluorescence intensity (a.u.).
For “CCCCTAAACAGCATACTAGTACTACATCCGTCCCAAAATACGGAGTCACCTAGTGCAG”, the binding signal was 8280 fluorescence intensity (a.u.).
“TTTGGTATGTCAGGGCTTGTTTGGTTCAATACCCTATCAACGGAGTCACCTAGTGCAG” was tested, and the binding signal was 10000 fluorescence intensity (a.u.).
With “TACACTCACCACTATAAACACACGCACAAACACATATTAACGGAGTCACCTAGTGCAG” the binding signal was 8490 fluorescence intensity (a.u.).
In the case of “TCTGCTCATTAGCTCGAGACCTGGTCAGCTCGCCGCCATGCGGAGTCACCTAGTGCAG”, the binding signal is reported as 8150 fluorescence intensity (a.u.).
For “ATCACGGGATTACACAGCAAAGTAGCAAAGCTAAATTTTACGGAGTCACCTAGTGCAG”, the binding signal was 63700 fluorescence intensity (a.u.).
“CTCTTCTTCTTCTTCTTCTAGGGGCTGTTTGGTTTCCAGGCGGAGTCACCTAGTGCAG” was tested, and the binding signal was 8540 fluorescence intensity (a.u.).
For “ACGATGGCCTAAGTCAGTATTTTGACTATTTTTAAATAAACGGAGTCACCTAGTGCAG”, the binding signal was 8330 fluorescence intensity (a.u.).
With “TCGCAACACCAGATACCCCTCTTCGCTCTTGGATTTCTTTCGGAGTCACCTAGTGCAG” the binding signal was 9310 fluorescence intensity (a.u.).
For “GAAAAGCCACTAATCTCCAACCTCGTCTACACTTCTCCAACGGAGTCACCTAGTGCAG”, the binding signal was 8970 fluorescence intensity (a.u.).
